{"source": "patent US11268059B2", "about": "“Apparatuses, systems, and methods for culturing cells” (eXo Cell, LLC, priority 2015, dated 2022)", "origin": "cited, not measured here", "system": "beta-3 adrenoreceptors", "conditions": "ratio across adrenoreceptor subtypes 1, 2, 3", "note": "At least one structure is not confirmed: it was looked up by name or label, or the drawing left a doubt."}
{"smiles": "O=S(=O)(Nc1ccc(CCNC[C@H](O)c2cccnc2)cc1)c1ccc(-c2nc(-c3ccc(C(F)(F)F)cc3)cs2)cc1", "note": "[L-796568]", "values": [{"measurement": "1&1, 1&2, 1&3 (specificity ratio of agonist)", "value": "1:230:660"}]}
